Assay results as given in the supplement of paper PMC10849652.
This is one part of the list.

By UniProt entry, the sequences of proteins in these tests, tags left out. Where a name states a change or a piece, a line headed by the entry shows the natural chain unless it says otherwise.
UniProt Q15637: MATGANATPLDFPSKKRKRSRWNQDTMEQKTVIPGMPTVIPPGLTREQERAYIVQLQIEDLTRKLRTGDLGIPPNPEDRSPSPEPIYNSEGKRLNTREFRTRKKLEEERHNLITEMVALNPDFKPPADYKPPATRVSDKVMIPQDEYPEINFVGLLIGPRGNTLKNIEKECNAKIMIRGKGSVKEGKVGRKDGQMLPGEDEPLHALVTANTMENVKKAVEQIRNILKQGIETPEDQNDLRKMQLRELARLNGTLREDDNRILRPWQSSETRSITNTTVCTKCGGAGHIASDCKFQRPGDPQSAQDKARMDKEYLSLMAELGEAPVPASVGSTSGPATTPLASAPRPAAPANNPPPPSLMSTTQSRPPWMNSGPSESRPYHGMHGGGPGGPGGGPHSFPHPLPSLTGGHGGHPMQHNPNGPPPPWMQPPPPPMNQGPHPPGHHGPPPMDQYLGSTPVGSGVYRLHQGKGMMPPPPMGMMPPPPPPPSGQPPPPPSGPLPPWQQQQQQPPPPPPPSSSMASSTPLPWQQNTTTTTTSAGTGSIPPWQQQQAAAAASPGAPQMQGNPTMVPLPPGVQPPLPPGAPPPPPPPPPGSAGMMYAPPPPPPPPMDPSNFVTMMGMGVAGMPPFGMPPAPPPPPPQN
UniProt Q86VZ5: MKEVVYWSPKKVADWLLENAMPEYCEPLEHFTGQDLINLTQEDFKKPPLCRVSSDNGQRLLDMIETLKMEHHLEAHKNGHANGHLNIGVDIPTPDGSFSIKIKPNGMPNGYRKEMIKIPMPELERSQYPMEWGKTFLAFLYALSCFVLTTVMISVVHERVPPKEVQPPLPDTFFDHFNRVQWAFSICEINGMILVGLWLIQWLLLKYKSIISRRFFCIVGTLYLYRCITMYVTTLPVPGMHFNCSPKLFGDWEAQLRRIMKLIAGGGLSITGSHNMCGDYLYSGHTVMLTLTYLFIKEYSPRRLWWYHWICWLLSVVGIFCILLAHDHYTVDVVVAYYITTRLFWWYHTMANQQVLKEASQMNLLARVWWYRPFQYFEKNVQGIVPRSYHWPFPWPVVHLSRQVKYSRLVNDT
UniProt Q92599: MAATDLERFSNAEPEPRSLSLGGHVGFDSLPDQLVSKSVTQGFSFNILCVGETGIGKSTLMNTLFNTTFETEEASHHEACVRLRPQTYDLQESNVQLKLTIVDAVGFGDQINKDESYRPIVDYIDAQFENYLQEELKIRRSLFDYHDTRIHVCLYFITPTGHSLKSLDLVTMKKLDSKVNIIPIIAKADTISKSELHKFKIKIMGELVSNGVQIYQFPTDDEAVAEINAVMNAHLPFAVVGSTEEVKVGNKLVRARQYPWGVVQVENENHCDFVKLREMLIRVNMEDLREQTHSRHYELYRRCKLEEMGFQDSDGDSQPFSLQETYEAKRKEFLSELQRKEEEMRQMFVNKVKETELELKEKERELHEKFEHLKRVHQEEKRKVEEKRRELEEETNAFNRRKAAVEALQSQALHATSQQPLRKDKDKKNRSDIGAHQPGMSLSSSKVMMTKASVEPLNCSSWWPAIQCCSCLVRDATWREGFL
UniProt Q9H9S3, whole entry, looked up: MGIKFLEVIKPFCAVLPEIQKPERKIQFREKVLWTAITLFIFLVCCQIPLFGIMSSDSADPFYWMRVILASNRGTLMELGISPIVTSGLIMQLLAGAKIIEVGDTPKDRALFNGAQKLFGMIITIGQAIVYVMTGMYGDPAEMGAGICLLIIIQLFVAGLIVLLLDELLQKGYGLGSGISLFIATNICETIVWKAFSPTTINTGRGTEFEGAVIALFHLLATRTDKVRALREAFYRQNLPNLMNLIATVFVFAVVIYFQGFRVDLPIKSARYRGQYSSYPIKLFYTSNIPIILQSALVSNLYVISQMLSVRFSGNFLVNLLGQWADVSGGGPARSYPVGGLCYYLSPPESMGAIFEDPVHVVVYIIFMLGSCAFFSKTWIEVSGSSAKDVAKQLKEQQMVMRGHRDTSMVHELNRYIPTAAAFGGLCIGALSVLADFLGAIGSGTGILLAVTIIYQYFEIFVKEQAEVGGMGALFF
UniProt Q12874: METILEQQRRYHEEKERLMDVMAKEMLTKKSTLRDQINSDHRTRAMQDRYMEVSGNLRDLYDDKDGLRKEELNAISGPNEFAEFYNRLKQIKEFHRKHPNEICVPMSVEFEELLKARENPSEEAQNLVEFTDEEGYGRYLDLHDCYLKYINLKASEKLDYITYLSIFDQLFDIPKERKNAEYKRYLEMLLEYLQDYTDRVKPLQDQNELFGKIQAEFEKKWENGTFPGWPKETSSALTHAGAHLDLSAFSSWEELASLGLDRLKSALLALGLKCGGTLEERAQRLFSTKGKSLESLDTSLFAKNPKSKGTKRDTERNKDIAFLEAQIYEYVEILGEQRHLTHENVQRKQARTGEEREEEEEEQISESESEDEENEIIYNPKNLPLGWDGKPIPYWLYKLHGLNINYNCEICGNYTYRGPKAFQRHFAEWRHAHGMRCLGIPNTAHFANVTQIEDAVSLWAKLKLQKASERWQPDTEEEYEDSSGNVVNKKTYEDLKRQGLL
UniProt Q9UJC5: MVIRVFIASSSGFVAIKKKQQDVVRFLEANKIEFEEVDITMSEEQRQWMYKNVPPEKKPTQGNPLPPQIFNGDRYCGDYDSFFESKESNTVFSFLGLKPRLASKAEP
UniProt P08697: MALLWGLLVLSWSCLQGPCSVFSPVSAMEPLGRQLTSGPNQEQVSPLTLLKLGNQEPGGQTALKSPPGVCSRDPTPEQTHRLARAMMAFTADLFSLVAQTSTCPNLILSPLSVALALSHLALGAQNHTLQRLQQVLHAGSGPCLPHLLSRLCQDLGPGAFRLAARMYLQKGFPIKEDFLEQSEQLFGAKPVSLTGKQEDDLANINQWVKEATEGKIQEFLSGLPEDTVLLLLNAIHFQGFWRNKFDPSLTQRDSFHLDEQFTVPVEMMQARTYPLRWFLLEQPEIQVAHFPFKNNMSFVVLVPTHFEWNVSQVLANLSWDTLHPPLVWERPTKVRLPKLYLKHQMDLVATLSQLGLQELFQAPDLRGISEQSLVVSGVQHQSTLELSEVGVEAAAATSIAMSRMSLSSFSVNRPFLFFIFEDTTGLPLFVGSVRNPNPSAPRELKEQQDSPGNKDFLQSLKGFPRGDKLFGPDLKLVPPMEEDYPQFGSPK
UniProt P23246: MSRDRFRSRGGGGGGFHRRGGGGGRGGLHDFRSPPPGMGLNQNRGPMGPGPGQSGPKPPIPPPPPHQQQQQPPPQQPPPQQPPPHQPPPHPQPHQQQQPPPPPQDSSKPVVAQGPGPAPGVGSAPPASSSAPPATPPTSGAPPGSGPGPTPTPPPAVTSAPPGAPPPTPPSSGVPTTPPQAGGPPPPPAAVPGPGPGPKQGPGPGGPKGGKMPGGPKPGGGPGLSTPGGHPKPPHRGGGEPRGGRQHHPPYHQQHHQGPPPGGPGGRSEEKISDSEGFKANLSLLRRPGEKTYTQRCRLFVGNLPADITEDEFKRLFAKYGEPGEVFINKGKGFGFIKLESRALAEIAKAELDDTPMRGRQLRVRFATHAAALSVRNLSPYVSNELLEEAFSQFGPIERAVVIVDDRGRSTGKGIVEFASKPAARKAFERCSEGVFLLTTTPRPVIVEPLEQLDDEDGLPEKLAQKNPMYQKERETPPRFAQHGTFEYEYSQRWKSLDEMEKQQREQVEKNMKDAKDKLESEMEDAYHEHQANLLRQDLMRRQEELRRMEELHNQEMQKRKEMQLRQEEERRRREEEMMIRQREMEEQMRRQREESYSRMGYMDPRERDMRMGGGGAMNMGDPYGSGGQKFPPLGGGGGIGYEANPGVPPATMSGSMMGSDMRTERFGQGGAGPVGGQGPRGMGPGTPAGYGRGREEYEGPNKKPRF
UniProt Q99574: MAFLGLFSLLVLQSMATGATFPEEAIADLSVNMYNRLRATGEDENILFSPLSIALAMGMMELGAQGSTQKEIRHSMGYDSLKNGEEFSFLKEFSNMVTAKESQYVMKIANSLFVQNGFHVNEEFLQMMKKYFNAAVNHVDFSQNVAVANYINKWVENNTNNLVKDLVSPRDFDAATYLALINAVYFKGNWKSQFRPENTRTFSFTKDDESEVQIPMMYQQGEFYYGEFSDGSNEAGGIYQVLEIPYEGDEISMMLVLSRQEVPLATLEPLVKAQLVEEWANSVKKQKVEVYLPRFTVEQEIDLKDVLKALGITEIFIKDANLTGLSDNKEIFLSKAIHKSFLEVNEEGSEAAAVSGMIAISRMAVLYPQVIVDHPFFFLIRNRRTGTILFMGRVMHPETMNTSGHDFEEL
UniProt Q9UQ13: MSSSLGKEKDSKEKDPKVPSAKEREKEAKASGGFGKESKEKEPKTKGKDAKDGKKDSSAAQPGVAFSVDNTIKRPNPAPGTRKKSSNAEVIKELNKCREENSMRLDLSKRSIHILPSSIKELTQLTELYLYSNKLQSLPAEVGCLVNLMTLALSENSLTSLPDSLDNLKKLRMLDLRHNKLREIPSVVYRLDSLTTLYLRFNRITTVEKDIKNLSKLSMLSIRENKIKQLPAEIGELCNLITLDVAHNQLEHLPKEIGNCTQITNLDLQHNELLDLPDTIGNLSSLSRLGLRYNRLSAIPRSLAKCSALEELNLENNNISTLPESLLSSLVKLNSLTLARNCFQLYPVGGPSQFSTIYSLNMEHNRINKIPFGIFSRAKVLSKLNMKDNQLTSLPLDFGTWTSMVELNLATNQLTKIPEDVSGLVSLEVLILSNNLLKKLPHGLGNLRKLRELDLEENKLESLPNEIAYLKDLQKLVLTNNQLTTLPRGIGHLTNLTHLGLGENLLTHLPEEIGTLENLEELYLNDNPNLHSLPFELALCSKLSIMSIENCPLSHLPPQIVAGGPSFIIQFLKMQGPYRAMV
UniProt Q13435: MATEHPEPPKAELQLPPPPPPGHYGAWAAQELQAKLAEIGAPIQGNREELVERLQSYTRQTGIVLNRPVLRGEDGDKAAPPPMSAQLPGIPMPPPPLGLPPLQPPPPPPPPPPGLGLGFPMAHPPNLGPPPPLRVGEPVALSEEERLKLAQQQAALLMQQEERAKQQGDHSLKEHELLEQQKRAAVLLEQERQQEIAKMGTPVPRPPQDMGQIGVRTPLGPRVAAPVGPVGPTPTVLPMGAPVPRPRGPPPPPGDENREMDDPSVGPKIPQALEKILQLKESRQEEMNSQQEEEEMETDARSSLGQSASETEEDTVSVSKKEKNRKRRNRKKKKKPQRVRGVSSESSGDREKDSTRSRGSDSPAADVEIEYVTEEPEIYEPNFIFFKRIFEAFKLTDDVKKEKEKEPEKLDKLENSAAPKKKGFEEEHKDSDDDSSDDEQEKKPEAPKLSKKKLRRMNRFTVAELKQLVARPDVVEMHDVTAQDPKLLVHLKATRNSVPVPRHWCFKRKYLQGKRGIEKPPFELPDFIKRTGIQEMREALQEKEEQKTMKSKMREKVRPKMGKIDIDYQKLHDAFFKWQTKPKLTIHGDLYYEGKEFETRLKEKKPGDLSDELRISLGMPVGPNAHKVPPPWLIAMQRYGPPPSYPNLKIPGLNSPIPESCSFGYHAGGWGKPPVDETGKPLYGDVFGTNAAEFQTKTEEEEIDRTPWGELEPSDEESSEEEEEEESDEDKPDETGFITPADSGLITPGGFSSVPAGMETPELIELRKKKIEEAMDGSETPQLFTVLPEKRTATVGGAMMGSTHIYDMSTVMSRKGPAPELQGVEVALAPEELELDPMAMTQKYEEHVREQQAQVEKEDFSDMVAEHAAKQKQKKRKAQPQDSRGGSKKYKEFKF
UniProt Q9NPR2: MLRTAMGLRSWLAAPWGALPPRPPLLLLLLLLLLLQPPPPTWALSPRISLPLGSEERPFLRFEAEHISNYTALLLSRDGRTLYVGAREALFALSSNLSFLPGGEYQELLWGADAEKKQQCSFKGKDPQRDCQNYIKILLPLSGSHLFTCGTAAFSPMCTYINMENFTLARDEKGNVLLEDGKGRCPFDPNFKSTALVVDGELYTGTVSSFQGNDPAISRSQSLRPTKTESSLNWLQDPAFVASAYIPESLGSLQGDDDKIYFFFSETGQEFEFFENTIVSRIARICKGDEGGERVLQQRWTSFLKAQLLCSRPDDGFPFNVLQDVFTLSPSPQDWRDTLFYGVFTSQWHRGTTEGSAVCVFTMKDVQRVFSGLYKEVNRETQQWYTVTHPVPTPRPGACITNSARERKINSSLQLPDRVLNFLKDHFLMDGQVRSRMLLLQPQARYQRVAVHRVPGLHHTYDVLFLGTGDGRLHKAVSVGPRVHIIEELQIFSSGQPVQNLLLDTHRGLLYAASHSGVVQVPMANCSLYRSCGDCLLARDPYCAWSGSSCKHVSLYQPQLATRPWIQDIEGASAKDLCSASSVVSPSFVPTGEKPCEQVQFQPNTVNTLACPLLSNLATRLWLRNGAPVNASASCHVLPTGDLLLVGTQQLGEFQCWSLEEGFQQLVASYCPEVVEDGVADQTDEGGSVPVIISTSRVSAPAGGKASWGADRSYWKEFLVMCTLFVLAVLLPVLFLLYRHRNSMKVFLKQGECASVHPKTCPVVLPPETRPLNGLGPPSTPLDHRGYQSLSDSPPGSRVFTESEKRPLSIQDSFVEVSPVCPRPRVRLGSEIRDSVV

How the values were obtained:
Test in all cases: log2 fold change, soluble protein after heating vs DMSO (PISA); higher = thermal stabilisation; K562 cells, 10 uM, 30 min; active = over 0.2 and 3.5 SD of the protein, either way, in both replicates (recomputed)
saracatinib = compound: CN1CCN(CCOc2cc(OC3CCOCC3)c3c(Nc4c(Cl)ccc5c4OCO5)ncnc3c2)CC1 [saracatinib]
Outline: (§1)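 K562 cells at 2×10^6 cells/mL were given 10 μM compound for 30 min. Aliquots then went through 3 min of heating across 48°C-58°C, were pooled, and were extracted in PBS with 0.5% NP-40 at 4°C, and the supernatant after 21,000xg for 90 min was quantified by TMTpro 16plex LC-MS/MS with channel sums equalised. Thermal stability relative to control samples, from duplicates, is given as log2 fold change.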

sotrastaurin = compound: CN1CCN(c2nc(C3=C(c4c[nH]c5ccccc45)C(=O)NC3=O)c3ccccc3n2)CC1 [sotrastaurin]
Outline: as §1

alvocidib = compound: CN1CC[C@H](c2c(O)cc(O)c3c(=O)cc(-c4ccccc4Cl)oc23)[C@H](O)C1 [alvocidib]
Outline: as §1

Tubastatin A = compound: CN1CCc2c(c3ccccc3n2Cc2ccc(C(=O)NO)cc2)C1 [Tubastatin A]
Outline: as §1

[1] = compound: CNC(=O)C1=CC=CC=C1NC2=NC(=NC=C2Cl)NC3=C(C=C(C=C3)N4CCOCC4)OC
Outline: as §1

defactinib = compound: CNC(=O)c1ccc(Nc2ncc(C(F)(F)F)c(NCc3nccnc3N(C)S(C)(=O)=O)n2)cc1 [defactinib]
Outline: as §1

rucaparib = compound: CNCc1ccc(-c2[nH]c3cc(F)cc4c3c2CCNC4=O)cc1 [rucaparib]
Outline: as §1

[2] = compound: CNc1nc(-c2ccc3c(N)n[nH]c3c2)cc(N2C[C@@H](C(=O)NC3CCCCC3)CC[C@H]2C)n1
Outline: as §1

encorafenib = compound: COC(=O)N[C@@H](C)CNc1nccc(-c2cn(C(C)C)nc2-c2cc(Cl)cc(NS(C)(=O)=O)c2F)n1 [encorafenib]
Outline: as §1

[3] = compound: COC(=O)[C@H](CCSC)NC(=O)C1=C(C=C(C=C1)NC[C@H](CS)N)C2=CC=CC=C2
Outline: as §1

[4] = compound: COC1=CC=C(C=C1)CN2C=CC3=C2C=C(C=C3)C(=O)NO
Outline: as §1

filanesib = compound: CON(C)C(=O)N1N=C(c2cc(F)ccc2F)S[C@@]1(CCCN)c1ccccc1 [filanesib]
Outline: as §1

zotarolimus = compound: CO[C@H]1C[C@@H]2CC[C@@H](C)[C@@](O)(O2)C(=O)C(=O)N2CCCC[C@H]2C(=O)O[C@H]([C@H](C)C[C@@H]2CC[C@H](n3cnnn3)[C@H](OC)C2)CC(=O)[C@H](C)/C=C(\C)[C@@H](O)[C@@H](OC)C(=O)[C@H](C)C[C@H](C)/C=C/C=C/C=C/1C [zotarolimus]
Outline: as §1

idasanutlin = compound: COc1cc(C(=O)O)ccc1NC(=O)[C@@H]1N[C@@H](CC(C)(C)C)[C@](C#N)(c2ccc(Cl)cc2F)[C@H]1c1cccc(Cl)c1F [idasanutlin]
Outline: as §1

alisertib = compound: COc1cc(Nc2ncc3c(n2)-c2ccc(Cl)cc2C(c2c(F)cccc2OC)=NC3)ccc1C(=O)O [alisertib]
Outline: as §1

[5] = compound: COc1cc2nc(-c3cc(F)ccc3O)nc(N[C@@H]3CNC[C@H]3C(C)(C)O)c2cc1OC
Outline: as §1

gefitinib = compound: COc1cc2ncnc(Nc3ccc(F)c(Cl)c3)c2cc1OCCCN1CCOCC1 [gefitinib]
Outline: as §1

[6] = compound: COc1cccc2cc(-c3nc([C@H]4CC[C@H](C(=O)O)CC4)n4ncnc(N)c34)[nH]c12
Outline: as §1

lapatinib = compound: CS(=O)(=O)CCNCc1ccc(-c2ccc3ncnc(Nc4ccc(OCc5cccc(F)c5)c(Cl)c4)c3c2)o1 [lapatinib]
Outline: as §1

pictilisib = compound: CS(=O)(=O)N1CCN(Cc2cc3nc(-c4cccc5[nH]ncc45)nc(N4CCOCC4)c3s2)CC1 [pictilisib]
Outline: as §1

Measured: log2 fold change

SF1 isoform 5 (UniProt Q15637)
inactive: saracatinib 0.06 | sotrastaurin 0.008 | alvocidib -0.02 | Tubastatin A 0.005 | [1] -0.017 | defactinib -0.022 | rucaparib 0.003 | [2] -0.009 | encorafenib -0.025 | [3] 0.032 | [4] -0.002 | filanesib -0.014 | zotarolimus 0 | idasanutlin -0.001 | alisertib -0.081 | [5] -0.048 | gefitinib 0 | [6] 0.03 | lapatinib 0.041 | pictilisib -0.002

SEPTIN7 (UniProt Q16181)
inactive: saracatinib 0.109 | sotrastaurin 0.025 | alvocidib -0.057 | Tubastatin A -0.005 | [1] -0.031 | defactinib -0.043 | rucaparib -0.086 | [2] 0.073 | encorafenib 0.012 | [3] 0.005 | [4] 0.033 | filanesib -0.026 | zotarolimus 0.065 | idasanutlin -0.043 | alisertib -0.023 | [5] -0.099 | gefitinib 0.022 | [6] 0.012 | lapatinib 0.034 | pictilisib -0.054

SGMS1 (UniProt Q86VZ5)
inactive: saracatinib 0.045 | sotrastaurin 0.017 | alvocidib 0.011 | Tubastatin A -0.024 | [1] 0.007 | defactinib -0.031 | rucaparib -0.016 | [2] -0.019 | encorafenib -0.014 | [3] -0.008 | [4] -0.029 | filanesib -0.016 | zotarolimus -0.003 | idasanutlin -0.101 | alisertib 0.004 | [5] 0.051 | gefitinib 0.021 | [6] 0.038 | lapatinib 0 | pictilisib 0.038

Reprinted at random: 2 entries already listed
SF1 isoform 5 (UniProt Q15637)
inactive: saracatinib 0.06 | sotrastaurin 0.008 | alvocidib -0.02 | Tubastatin A 0.005 | [1] -0.017 | defactinib -0.022 | rucaparib 0.003 | [2] -0.009 | encorafenib -0.025 | [3] 0.032 | [4] -0.002 | filanesib -0.014 | zotarolimus 0 | idasanutlin -0.001 | alisertib -0.081 | [5] -0.048 | gefitinib 0 | [6] 0.03 | lapatinib 0.041 | pictilisib -0.002

SGMS1 (UniProt Q86VZ5)
inactive: saracatinib 0.045 | sotrastaurin 0.017 | alvocidib 0.011 | Tubastatin A -0.024 | [1] 0.007 | defactinib -0.031 | rucaparib -0.016 | [2] -0.019 | encorafenib -0.014 | [3] -0.008 | [4] -0.029 | filanesib -0.016 | zotarolimus -0.003 | idasanutlin -0.101 | alisertib 0.004 | [5] 0.051 | gefitinib 0.021 | [6] 0.038 | lapatinib 0 | pictilisib 0.038

Going on with the list.

SEPTIN8 (UniProt Q92599)
inactive: saracatinib 0.039 | sotrastaurin 0.01 | alvocidib -0.022 | Tubastatin A -0.028 | [1] -0.013 | defactinib -0.03 | rucaparib -0.058 | [2] 0.008 | encorafenib -0.005 | [3] -0.013 | [4] -0.044 | filanesib -0.068 | zotarolimus -0.022 | idasanutlin -0.064 | alisertib -0.078 | [5] 0.042 | gefitinib 0.002 | [6] 0.049 | lapatinib -0.005 | pictilisib 0.046

SEC61A2 (UniProt Q9H9S3)
inactive: saracatinib 0.087 | sotrastaurin -0.014 | alvocidib -0.017 | Tubastatin A -0.022 | [1] 0.007 | defactinib -0.016 | rucaparib -0.09 | [2] -0.023 | encorafenib 0.011 | [3] -0.009 | [4] -0.007 | filanesib -0.049 | zotarolimus -0.042 | idasanutlin -0.1 | alisertib -0.016 | [5] -0.041 | gefitinib 0.023 | [6] 0.043 | lapatinib 0.022 | pictilisib -0.007

SF3A3 (UniProt Q12874)
inactive: saracatinib -0.186 | sotrastaurin -0.126 | alvocidib -0.028 | Tubastatin A 0.08 | [1] 0.062 | defactinib 0.006 | rucaparib 0.078 | [2] -0.027 | encorafenib 0.103 | [3] -0.011 | [4] -0.015 | filanesib 0.128 | zotarolimus 0.073 | idasanutlin 0.039 | alisertib -0.081 | [5] 0.154 | gefitinib 0.028 | [6] -0.064 | lapatinib -0.005 | pictilisib 0.009

SH3BGRL2 (UniProt Q9UJC5)
inactive: saracatinib -0.002 | sotrastaurin 0.033 | alvocidib -0.15 | Tubastatin A -0.017 | [1] 0.041 | defactinib -0.012 | rucaparib 0.135 | [2] -0.097 | encorafenib 0 | [3] -0.076 | [4] -0.104 | filanesib -0.007 | zotarolimus -0.009 | idasanutlin 0.052 | alisertib -0.018 | [5] 0.04 | gefitinib -0.009 | [6] 0.052 | lapatinib 0.03 | pictilisib 0.086

SH3BGRL (UniProt O75368)
inactive: saracatinib -0.025 | sotrastaurin -0.147 | alvocidib -0.055 | Tubastatin A 0.006 | [1] -0.013 | defactinib -0.022 | rucaparib -0.014 | [2] 0.009 | encorafenib -0.004 | [3] -0.057 | [4] 0.018 | filanesib -0.101 | zotarolimus -0.005 | idasanutlin -0.052 | alisertib -0.028 | [5] -0.047 | gefitinib -0.009 | [6] 0 | lapatinib -0.012 | pictilisib 0.157

SHTN1 isoform 3 (UniProt A0MZ66)
inactive: saracatinib -0.037 | sotrastaurin -0.073 | alvocidib -0.028 | Tubastatin A 0.039 | [1] 0.106 | defactinib -0.015 | rucaparib -0.013 | [2] -0.009 | encorafenib 0.057 | [3] -0.008 | [4] -0.034 | filanesib 0.048 | zotarolimus 0.027 | idasanutlin 0.012 | alisertib 0.028 | [5] 0.115 | gefitinib 0.048 | [6] 0.009 | lapatinib 0.009 | pictilisib 0.068

SERPINF2 (UniProt P08697)
inactive: saracatinib 0.225 | sotrastaurin 0.14 | alvocidib 0.038 | Tubastatin A -0.118 | [1] -0.008 | defactinib -0.077 | rucaparib -0.101 | [2] -0.049 | encorafenib 0.039 | [3] 0.123 | [4] -0.068 | filanesib 0.083 | zotarolimus -0.147 | idasanutlin 0.1 | alisertib 0.045 | [5] -0.167 | gefitinib -0.419 | [6] 0.227 | lapatinib -0.041 | pictilisib 0.041

SFPQ (UniProt P23246)
inactive: saracatinib -0.043 | sotrastaurin -0.083 | alvocidib 0.036 | Tubastatin A 0.01 | [1] -0.019 | defactinib 0.077 | rucaparib 0.227 | [2] -0.026 | encorafenib 0.099 | [3] 0.008 | [4] -0.044 | filanesib 0.246 | zotarolimus -0.004 | idasanutlin 0.141 | alisertib -0.048 | [5] -0.05 | gefitinib 0.007 | [6] -0.078 | lapatinib 0.029 | pictilisib -0.052

SH3BP1 (UniProt Q9Y3L3)
inactive: saracatinib 0.028 | sotrastaurin 0.018 | alvocidib -0.036 | Tubastatin A -0.013 | [1] -0.029 | defactinib -0.002 | rucaparib -0.004 | [2] 0.004 | encorafenib 0.004 | [3] 0.009 | [4] 0.014 | filanesib 0.01 | zotarolimus 0.018 | idasanutlin -0.007 | alisertib -0.022 | [5] 0.054 | gefitinib 0.003 | [6] 0.019 | lapatinib 0.011 | pictilisib 0.097

SERPINI1 (UniProt Q99574)
inactive: saracatinib 0.174 | sotrastaurin 0.006 | alvocidib 0.065 | Tubastatin A -0.024 | [1] 0.016 | defactinib -0.036 | rucaparib -0.126 | [2] -0.055 | encorafenib 0.067 | [3] 0.024 | [4] 0.02 | filanesib 0.022 | zotarolimus -0.073 | idasanutlin -0.163 | alisertib -0.014 | [5] 0.043 | gefitinib -0.026 | [6] -0.056 | lapatinib 0.049 | pictilisib 0.038

SHOC2 (UniProt Q9UQ13)
inactive: saracatinib -0.03 | sotrastaurin 0.083 | alvocidib -0.102 | Tubastatin A 0.034 | [1] 0.003 | defactinib -0.039 | rucaparib 0.05 | [2] 0.092 | encorafenib -0.035 | [3] -0.049 | [4] 0.025 | filanesib -0.168 | zotarolimus 0.03 | idasanutlin -0.092 | alisertib -0.021 | [5] 0.028 | gefitinib 0.032 | [6] 0.062 | lapatinib 0.018 | pictilisib 0.086

SF3B2 (UniProt Q13435)
inactive: saracatinib -0.03 | sotrastaurin -0.08 | alvocidib 0.089 | Tubastatin A 0.037 | [1] -0.018 | defactinib 0.069 | rucaparib 0.088 | [2] -0.009 | encorafenib 0.085 | [3] -0.016 | [4] -0.042 | filanesib 0.166 | zotarolimus 0.012 | idasanutlin 0.048 | alisertib -0.03 | [5] -0.033 | gefitinib 0.008 | [6] -0.06 | lapatinib 0.049 | pictilisib -0.02

SEMA4B (UniProt Q9NPR2)
inactive: saracatinib 0.133 | sotrastaurin -0.021 | alvocidib -0.058 | Tubastatin A -0.043 | [1] 0.111 | defactinib -0.085 | rucaparib -0.038 | [2] -0.002 | encorafenib 0.051 | [3] 0.061 | [4] -0.096 | filanesib 0.02 | zotarolimus -0.214 | idasanutlin 0.063 | alisertib -0.09 | [5] 0.073 | gefitinib 0.185 | [6] 0.054 | lapatinib -0.027 | pictilisib 0.162
